{"source": "patent US20220354847A1", "about": "“THIAMINE THERAPY FOR FATTY LIVER ASSOCIATED DISEASES” (priority 2019, published 2022)", "origin": "cited, not measured here", "system": "liver histology", "conditions": "biopsy-proven NASH patients; literature; cited from earlier work", "note": "At least one compound was matched to its structure with a doubt left."}
{"smiles": "CCc1ccc(CCOc2ccc(CC3SC(=O)NC3=O)cc2)nc1", "note": "(stereo not shown) [pioglitazone]", "values": [{"measurement": "effect on liver histology", "result": "improve liver histology"}]}
